The record followed here is US20240173341A1, “COMPOSITION FOR AMELIORATING OR TREATING DEMENTIA CONTAINING 2'-FUCOSYLLACTOSE” (Advanced Protein Technologies Corp., priority 2022, published 2024).

The experiment relates to amyloid beta accumulated in mouse brain tissue. Briefly: Amyloid beta accumulation analysis (thioflavin staining of cleared brain tissue). As to conditions: Donepezil group, 5×FAD mice. It is filed as in vivo. As for the experimental part:
The experimental animals used herein were 24-week-old 5×FAD (Aβ plaques) Alzheimer's models. The experimental animals were raised at a temperature of 22±3° C., at a relative humidity of 30±10%, and at an illuminance of 150 to 300 Lux for a lighting period of 12 hours (08:00˜20:00), and five or less animals were raised in each polycarbonate cage.
The term “dementia group” refers to 5×FAD mice administered distilled water, and the term “normal group” refers to wild-type mice administered distilled water.
For the amyloid beta accumulated in mouse brain tissue, brain tissue over 1 mm in size was made transparent using a tissue transparency technique, stained with thioflavin, imaged in three dimensions, and then quantified as plaques for each brain region using the Imaris program.
In addition, three 1 mm-thick brain tissues were collected from each group, the volumes thereof were measured, and the total number of accumulated amyloid beta was measured.

Regarding `COc1cc2c(cc1OC)C(=O)C(CC1CCN(Cc3ccccc3)CC1)C2` (centres unmarked) [Donepezil, donepezil, reference compound], the Ab number reads like this: (1st brain tissue) 20000; (2nd brain tissue) 50500; (3rd brain tissue) 40500; (Avr. of three brain tissues) 37000. Also, the Ab number/volume by setting is: (1st brain tissue) 7547; (2nd brain tissue) 18364; (3rd brain tissue) 14945; (Avr. of three brain tissues) 13618.
